Assay [1] deals with NHLRC2 (NHL repeat-containing protein 2), full-length (human) (UniProt Q8NBF2). Description: SAXS; full-length NHLRC2 at 1.25, 2.5, 5 mg/ml in 20 mM BisTris pH 6.5, 100 mM NaCl, 2 mM DTT; MW from Guinier analysis and Porod volume; both purified.
The target of assay [2] is T1, NHLRC2 fragment containing the Trx-like and β-propeller domains (aa 1-575) (human) (UniProt Q8NBF2).
T1 sequence: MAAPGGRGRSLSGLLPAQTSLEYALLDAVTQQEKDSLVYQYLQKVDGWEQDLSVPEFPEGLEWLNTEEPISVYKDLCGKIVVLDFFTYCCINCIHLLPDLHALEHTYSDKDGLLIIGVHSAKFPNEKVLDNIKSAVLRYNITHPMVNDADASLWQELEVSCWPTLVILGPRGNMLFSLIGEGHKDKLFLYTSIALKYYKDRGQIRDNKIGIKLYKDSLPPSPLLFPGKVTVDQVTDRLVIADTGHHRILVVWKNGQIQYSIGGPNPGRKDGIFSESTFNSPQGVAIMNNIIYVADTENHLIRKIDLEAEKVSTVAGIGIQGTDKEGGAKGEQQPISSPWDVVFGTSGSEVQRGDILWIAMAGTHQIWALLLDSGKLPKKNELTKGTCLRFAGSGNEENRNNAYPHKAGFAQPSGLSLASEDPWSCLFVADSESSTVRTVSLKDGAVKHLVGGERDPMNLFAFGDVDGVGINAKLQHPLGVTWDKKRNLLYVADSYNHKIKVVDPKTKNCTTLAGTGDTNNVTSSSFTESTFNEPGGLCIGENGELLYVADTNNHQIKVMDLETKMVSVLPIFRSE
Description: SEC-MALS; full-length NHLRC2 cleaved with endoproteinase GluC overnight at room temperature, the mixture of the two fragments loaded; Superdex 200 Increase 10/300; 20 mM BisTris pH 6.5, 150 mM NaCl, 2 mM DTT; both purified.

No constants are given. Whether binding was seen depends on the method and setting.

B1: NHLRC2 (NHL repeat-containing protein 2), full-length (protein, UniProt Q8NBF2 1-726)
chain: MAAPGGRGRSLSGLLPAQTSLEYALLDAVTQQEKDSLVYQYLQKVDGWEQDLSVPEFPEGLEWLNTEEPISVYKDLCGKIVVLDFFTYCCINCIHLLPDLHALEHTYSDKDGLLIIGVHSAKFPNEKVLDNIKSAVLRYNITHPMVNDADASLWQELEVSCWPTLVILGPRGNMLFSLIGEGHKDKLFLYTSIALKYYKDRGQIRDNKIGIKLYKDSLPPSPLLFPGKVTVDQVTDRLVIADTGHHRILVVWKNGQIQYSIGGPNPGRKDGIFSESTFNSPQGVAIMNNIIYVADTENHLIRKIDLEAEKVSTVAGIGIQGTDKEGGAKGEQQPISSPWDVVFGTSGSEVQRGDILWIAMAGTHQIWALLLDSGKLPKKNELTKGTCLRFAGSGNEENRNNAYPHKAGFAQPSGLSLASEDPWSCLFVADSESSTVRTVSLKDGAVKHLVGGERDPMNLFAFGDVDGVGINAKLQHPLGVTWDKKRNLLYVADSYNHKIKVVDPKTKNCTTLAGTGDTNNVTSSSFTESTFNEPGGLCIGENGELLYVADTNNHQIKVMDLETKMVSVLPIFRSENAVVDGPFLVEKQKTLPKLPKSAPSIRLSPVTACAGQTLQFKLRLDLPSGSKLTEGVSSCWFLTAEGNEWLLQGQIAAGDIENISSQPTISLQIPDDCLSLEAIVSVSVFLYYCSADSSACMMKAILFSQPLQITDTQQGCIAPVELRYVF
For B1, the binding entry in assay [1] is “no binding (tested: 1.25, 2.5, 5 mg/ml)”.

B2: NHLRC2 C-terminal domain (aa 587-726) (domain or fragment, UniProt Q8NBF2 587-726)
chain: KQKTLPKLPKSAPSIRLSPVTACAGQTLQFKLRLDLPSGSKLTEGVSSCWFLTAEGNEWLLQGQIAAGDIENISSQPTISLQIPDDCLSLEAIVSVSVFLYYCSADSSACMMKAILFSQPLQITDTQQGCIAPVELRYVF
Regarding B2, in assay [2], the binding result is on record as “no binding”.

For the origin of these results see article PMC6107167.
